According to PMC4126343:
No constants are given. Whether binding was seen depends on the method and setting. In cells and extracts the contact can be indirect. Some binding calls cover weakened binding; strength is not graded here.

Amino acid sequences for entries named in this document (tags omitted). A change or cut given only in a name is not applied to a line headed by its entry.
UniProt P50750: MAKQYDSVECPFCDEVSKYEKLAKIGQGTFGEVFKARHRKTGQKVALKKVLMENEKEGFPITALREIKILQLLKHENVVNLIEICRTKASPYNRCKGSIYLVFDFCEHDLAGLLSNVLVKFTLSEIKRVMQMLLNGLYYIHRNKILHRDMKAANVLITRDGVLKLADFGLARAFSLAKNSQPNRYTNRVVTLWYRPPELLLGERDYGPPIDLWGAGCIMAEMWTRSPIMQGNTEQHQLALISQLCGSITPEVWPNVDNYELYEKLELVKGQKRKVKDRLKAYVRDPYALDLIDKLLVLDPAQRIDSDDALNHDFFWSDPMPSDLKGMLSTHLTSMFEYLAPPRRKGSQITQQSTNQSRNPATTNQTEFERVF
UniProt O00472: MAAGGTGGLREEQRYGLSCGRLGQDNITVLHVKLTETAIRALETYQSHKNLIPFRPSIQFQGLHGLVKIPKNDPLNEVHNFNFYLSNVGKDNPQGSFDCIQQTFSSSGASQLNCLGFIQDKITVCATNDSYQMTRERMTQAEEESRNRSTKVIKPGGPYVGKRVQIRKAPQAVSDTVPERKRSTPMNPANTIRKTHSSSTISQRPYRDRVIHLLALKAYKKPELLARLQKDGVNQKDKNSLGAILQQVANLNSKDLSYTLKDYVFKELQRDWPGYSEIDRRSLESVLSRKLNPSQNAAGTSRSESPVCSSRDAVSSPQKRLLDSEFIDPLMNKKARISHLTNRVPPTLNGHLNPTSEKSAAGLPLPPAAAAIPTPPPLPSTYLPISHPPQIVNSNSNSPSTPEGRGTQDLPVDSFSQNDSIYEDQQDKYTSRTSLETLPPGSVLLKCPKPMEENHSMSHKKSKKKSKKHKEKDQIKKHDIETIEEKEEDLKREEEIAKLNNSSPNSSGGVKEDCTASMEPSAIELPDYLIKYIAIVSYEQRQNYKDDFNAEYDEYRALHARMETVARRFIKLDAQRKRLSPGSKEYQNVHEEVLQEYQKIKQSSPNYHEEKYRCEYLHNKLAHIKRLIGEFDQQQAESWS
UniProt P42568: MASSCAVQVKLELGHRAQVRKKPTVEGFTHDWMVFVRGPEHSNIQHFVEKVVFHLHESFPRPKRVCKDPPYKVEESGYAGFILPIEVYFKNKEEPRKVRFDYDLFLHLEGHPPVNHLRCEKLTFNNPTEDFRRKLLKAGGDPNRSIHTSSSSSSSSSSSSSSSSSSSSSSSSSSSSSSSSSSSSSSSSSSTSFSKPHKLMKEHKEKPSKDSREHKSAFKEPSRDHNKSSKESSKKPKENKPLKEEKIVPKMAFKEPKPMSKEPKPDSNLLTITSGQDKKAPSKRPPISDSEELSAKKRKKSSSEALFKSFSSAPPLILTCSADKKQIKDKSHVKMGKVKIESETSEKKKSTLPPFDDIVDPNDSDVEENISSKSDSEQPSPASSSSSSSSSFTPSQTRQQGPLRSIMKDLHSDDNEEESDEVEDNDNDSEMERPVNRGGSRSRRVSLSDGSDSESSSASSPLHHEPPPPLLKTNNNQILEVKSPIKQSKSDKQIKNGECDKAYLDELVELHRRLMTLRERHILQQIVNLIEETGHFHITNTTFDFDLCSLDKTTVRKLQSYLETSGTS
UniProt O94992: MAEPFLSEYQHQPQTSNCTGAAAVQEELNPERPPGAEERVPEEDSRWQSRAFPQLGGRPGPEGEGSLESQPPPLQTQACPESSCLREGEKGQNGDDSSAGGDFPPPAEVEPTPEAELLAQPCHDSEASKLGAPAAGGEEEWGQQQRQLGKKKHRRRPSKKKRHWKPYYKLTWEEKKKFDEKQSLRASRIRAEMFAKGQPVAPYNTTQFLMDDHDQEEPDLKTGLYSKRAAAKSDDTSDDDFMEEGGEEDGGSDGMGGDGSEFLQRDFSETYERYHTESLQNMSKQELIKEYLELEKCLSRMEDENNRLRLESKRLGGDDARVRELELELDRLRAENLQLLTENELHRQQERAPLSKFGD

B1: MePCE (protein, UniProt Q7L2J0 1-689)
chain: MIEMAAEKEPFLVPAPPPPLKDESGGGGGPTVPPHQEAASGELRGGTERGPGRCAPSAGSPAAAVGRESPGAAATSSSGPQAQQHRGGGPQAQSHGEARLSDPPGRAAPPDVGEERRGGGGTELGPPAPPRPRNGYQPHRPPGGGGGKRRNSCNVGGGGGGFKHPAFKRRRRVNSDCDSVLPSNFLLGGNIFDPLNLNSLLDEEVSRTLNAETPKSSPLPAKGRDPVEILIPKDITDPLSLNTCTDEGHVVLASPLKTGRKRHRHRGQHHQQQQAAGGSESHPVPPTAPLTPLLHGEGASQQPRHRGQNRDAPQPYELNTAINCRDEVVSPLPSALQGPSGSLSAPPAASVISAPPSSSSRHRKRRRTSSKSEAGARGGGQGSKEKGRGSWGGRHHHHHPLPAAGFKKQQRKFQYGNYCKYYGYRNPSCEDGRLRVLKPEWFRGRDVLDLGCNVGHLTLSIACKWGPSRMVGLDIDSRLIHSARQNIRHYLSEELRLPPQTLEGDPGAEGEEGTTTVRKRSCFPASLTASRGPIAAPQVPLDGADTSVFPNNVVFVTGNYVLDRDDLVEAQTPEYDVVLCLSLTKWVHLNWGDEGLKRMFRRIYRHLRPGGILVLEPQPWSSYGKRKTLTETIYKNYYRIQLKPEQFSSYLTSPDVGFSSYELVATPHNTSKGFQRPVYLFHKARSPSH
B2: AFF4 (protein, UniProt Q9UHB7 1-1163)
chain: MNREDRNVLRMKERERRNQEIQQGEDAFPPSSPLFAEPYKVTSKEDKLSSRIQSMLGNYDEMKDFIGDRSIPKLVAIPKPTVPPSADEKSNPNFFEQRHGGSHQSSKWTPVGPAPSTSQSQKRSSGLQSGHSSQRTSAGSSSGTNSSGQRHDRESYNNSGSSSRKKGQHGSEHSKSRSSSPGKPQAVSSLNSSHSRSHGNDHHSKEHQRSKSPRDPDANWDSPSRVPFSSGQHSTQSFPPSLMSKSNSMLQKPTAYVRPMDGQESMEPKLSSEHYSSQSHGNSMTELKPSSKAHLTKLKIPSQPLDASASGDVSCVDEILKEMTHSWPPPLTAIHTPCKTEPSKFPFPTKESQQSNFGTGEQKRYNPSKTSNGHQSKSMLKDDLKLSSSEDSDGEQDCDKTMPRSTPGSNSEPSHHNSEGADNSRDDSSSHSGSESSSGSDSESESSSSDSEANEPSQSASPEPEPPPTNKWQLDNWLNKVNPHKVSPASSVDSNIPSSQGYKKEGREQGTGNSYTDTSGPKETSSATPGRDSKTIQKGSESGRGRQKSPAQSDSTTQRRTVGKKQPKKAEKAAAEEPRGGLKIESETPVDLASSMPSSRHKAATKGSRKPNIKKESKSSPRPTAEKKKYKSTSKSSQKSREIIETDTSSSDSDESESLPPSSQTPKYPESNRTPVKPSSVEEEDSFFRQRMFSPMEEKELLSPLSEPDDRYPLIVKIDLNLLTRIPGKPYKETEPPKGEKKNVPEKHTREAQKQASEKVSNKGKRKHKNEDDNRASESKKPKTEDKNSAGHKPSSNRESSKQSAAKEKDLLPSPAGPVPSKDPKTEHGSRKRTISQSSSLKSSSNSNKETSGSSKNSSSTSKQKKTEGKTSSSSKEVKEKAPSSSSNCPPSAPTLDSSKPRRTKLVFDDRNYSADHYLQEAKKLKHNADALSDRFEKAVYYLDAVVSFIECGNALEKNAQESKSPFPMYSETVDLIKYTMKLKNYLAPDATAADKRLTVLCLRCESLLYLRLFKLKKENALKYSKTLTEHLKNSYNNSQAPSPGLGSKAVGMPSPVSPKLSPGNSGNYSSGASSASASGSSVTIPQKIHQMAASYVQVTSNFLYATEIWDQAEQLSKEQKEFFAELDKVMGPLIFNASIMTDLVRYTRQGLHWLRQDAKLIS

Molecular target: cyclin-dependent kinase 9 (CDK9) (human (endogenous in T47D)) (UniProt P50750)
Test: co-IP; anti-CDK9 immunoprecipitation from nuclear extracts of T47D control and shLARP7 (LARP7 knock-down) cells; 4°C overnight, protein A beads 2 hr, washed with buffer D containing 0.3 M KCl, eluted with 0.1 M glycine pH 2.0; Western blotting

binding, binds:
ELL2 (from UniProt O00472 1-640)
AF9 (from UniProt P42568 1-568)
HEXIM1 (from UniProt O94992 1-359)
B1
B2
